Test results: paper PMC10163288
This is one part of the list.

B1: il10ra_site1_normal_mot_HHH_b1_04771_000000013_0001_40_56_H_._HHH_b2_04957_af2_0001_0000100002_0000001_1 (protein)
chain: SSSSSEEVEEAVELSTKAFRLALRGNDEEAEEVLKEALKIAEEGNDPRIREVVEDLLQALSSSSS
B2: il10ra_site1_sap_21_mot_HHH_b2_00066_000000124_0001_1_17_H_._HHH_b1_00973_0001_0000400027_0000001_0_0001 (protein)
chain: SSSSDEEFEHTREVYEEALELYRRGNEEEAKELLEEAEKELEKNNNWITLFALRHLLRLIGSSSS
B3: il10ra_site1_normal_mot_2c1a291787c6f40772924d4e9068d803_0001_af2_000000187_0001_34_48_H_._HHH_b1_05549_af2_0001_0000900022_0000001_1_af2pred_dldesign_0_af2pred (protein)
chain: SSSSSKEDYDLAVRAYRLAKALGREDLVEEIARLYAELSRTGDPKYKERLEEILAALEAESSSSS
B4: il10ra_site1_normal_mot_HHH_b2_06497_000000202_0001_1_20_H_._HHH_b1_02857_0001_0000200011_0000001_0 (protein)
chain: SSSSDLNEEIYRLLRRVAELIRRGDEEEAERVLEEVKQLAEEANSPVFRFAVRQLEILLNSSSSS
B5: il10ra_site1_sap_19_mot_HHH_b1_06789_af2_000000041_0001_1_20_H_._HHH_b2_02212_af2_0001_0000300005_0000002_0_0001_af2pred_dldesign_0_af2pred (protein)
chain: SSSSSKEEIRAQTRYRLAAARELEDPAERELTLRVAEAEAKYLGDEELLAEIEEVRAELSSSSSS
B6: il10ra_site1_normal_mot_HHH_b1_08477_000000091_0001_40_57_H_._ems_p1-16H-GBL-16H-GABBL-16H_0045_0001_0001_0002_0001_0000300008_0000001_0 (protein)
chain: SSSSDYVEQAARFAEALARAHGDEEALEKVEEVEEALERGEISEQEALELLAEILRRIARSSSSS
B7: il10ra_site1_sap_13_mot_HHH_b1_03763_000000209_0001_22_38_H_._HHH_b1_02042_0001_0000100011_0000001_0_0001 (protein)
chain: SSSSSSRDELYELLERVLELLAQGNEEEAREVIKEARELAEELGNRVMLVNIRFLERAVNSSSSS
B8: il10ra_site1_sap_21_mot_HHH_b2_04873_000000007_0001_40_56_H_._HHH_b1_06271_0001_0000700043_0000001_0_0001_af2pred_0001 (protein)
chain: SSSSDEREERAVRLLLLSAKRVPDPKLREAALRLAEAAARALGDPELEELVEEVQRELEENSSSS
B9: il10ra_site1_sap_19_mot_HHH_b2_08004_000000101_0001_1_17_H_._HHH_b2_01013_af2_0001_0000100003_0000002_0_0001 (protein)
chain: SSSSDEEEVERLLEEAEEARKEGDPELVIRLLREAVQIAFRSRNPELLRRIWEVVKRLGKSSSSS
B10: il10ra_site1_normal_mot_49468d6c54d8157f7969f91124172a68_0001_af2_000000173_0001_37_51_H_._HEEHE_0126_af2_0001_0000100006_0000002_0_af2pred_0001 (protein)
chain: DLAEAIKIAVEIAAERYNVPSVTVEVHNGEVHVEIEGDDREARQLEKLAKLSARLLNVKLEVEVE
B11: il10ra_site1_normal_mot_HHH_b1_03031_af2_000000117_0001_17_33_H_._HHH_b2_07811_af2_0001_0000600010_0000002_0 (protein)
chain: SSSSDEEEVKELEEELEKAKEEGDKEKAREIVQELILLAARLRDEELSQKAIEAWAKLAQNSSSS
B12: il10ra_site1_normal_mot_HHH_b1_05326_000000242_0001_1_20_H_._HHH_b1_08480_0001_0000400036_0000001_1 (protein)
chain: SSSSSEELQEVLELSRHAFRLALHGNPEEARELLEEAIELAREAGNPRLLRALEDLLKILNSSSS
B13: il10ra_site1_normal_mot_HHH_b2_00277_af2_000000172_0001_1_17_H_._HHH_b2_03103_0001_0000100010_0000002_0_af2pred_0001 (protein)
chain: SSSSDEEELEKEIEELLEEAKKIEDPRELSYLLVRAFALAVEGRDPELEELVKKVAQELISSSSS
B14: il10ra_site1_normal_mot_HHH_b2_03328_af2_000000127_0001_1_19_H_._HHH_b1_03894_0001_0000100001_0000001_0 (protein)
chain: SSSSSSNELYELSREALELFANGNPEEAQRVVEEAIELAEELGNRVILFTLRHLLRVISSSSSSS
B15: il10ra_site1_normal_mot_39ab2cb694c8b9c1dc7e65c0d672c93e_0001_000000036_0001_53_65_H_._HHH_b2_05692_af2_0001_0000600025_0000002_0 (protein)
chain: SSSSDEEEEELRELVEEVERLIERNDREEALRVAAEALRLAFRARNPEVLQLLWELAKLLSSSSS
B16: il10ra_site1_normal_mot_HHH_b2_07731_000000003_0001_42_56_H_._HHH_b2_03545_0001_0000300038_0000001_0_af2pred_0001 (protein)
chain: SSSSDEVQEEVERLLEEARELFEKGNPQEAFRLIREAAEIAAENRDPEALKLVSKLAQELISSSS
B17: il10ra_site1_sap_15_mot_HHH_b1_04036_000000109_0001_1_15_H_._HHH_b2_00730_0001_0000100001_0000001_0_0001 (protein)
chain: SSSSDEEVEELLEQAKELLEEGNHEEAMRLAVEALRIAYRAKDPRLIQLVWEVIRELAELRSSSS
B18: il10ra_site1_sap_21_mot_HHH_b2_07873_af2_000000172_0001_1_19_H_._87bccf00243209e7f763f401d09c0631_0001_0002_0000400012_0000002_0_0001 (protein)
chain: SSSSTALHEVWRLSREFIELAQEGDEEKAEEVLKEIEELARESNSPLARYILEVLERALKSSSSS
B19: il10ra_site1_normal_mot_HHH_b1_03900_000000129_0001_1_16_H_._HHH_b2_01195_0001_0000400015_0000002_0_af2pred_0001 (protein)
chain: SSSSSSDEEREEAEELHREVEEDPRHSYKLLKELARLALKSRNPEIIRLALELAEELKRSSSSSS
B20: il10ra_site1_sap_10_mot_HHH_b2_07521_000000141_0001_20_37_H_._HHH_b1_07784_0001_0000100002_0000001_0_0001_af2pred_0001 (protein)
chain: SSSSSSEIERVMELLERVAELLHKGNPEEAKEVLEEAKEIAEELGNLALRISIEFLEKIASSSSS
B21: il10ra_site1_sap_19_mot_HHH_b2_02497_000000141_0001_1_20_H_._HHH_b2_03821_0001_0000200019_0000001_0_0001_af2pred_0001 (protein)
chain: SSSSDDDERRLRLSLKFLKFLIEEGSERSAEILIRAIEDLAKKAKDEEVQKLVEELREELESSSS
B22: il10ra_site1_normal_mot_b26a303360aa2756ef5b79665ce52f45_0001_000000179_0001_1_11_H_._HHH_b2_02270_0001_0000100005_0000001_0_af2pred_0001 (protein)
chain: SSSSSSSEREEAFRILREAAHIDDEEEARELLEEAIELAEKANNPVLRRSAEFALRDKSSSSSSS
B23: il10ra_site1_sap_24_mot_HHH_b2_05323_000000159_0001_1_18_H_._HHH_b2_02704_af2_0001_0000200011_0000002_0_0001 (protein)
chain: SSSSTEELYRKVKEIIEEANELARRGNPEEVERILRELLEELEELNNEALLWAVRYALKINSSSS
B24: il10ra_site1_sap_12_mot_ems_3hM_3349_000000016_0001_25_42_H_._b4be136d7f8a4bb058aae31a77d31857_0001_0001_0000300014_0000001_0_0001_af2pred_dldesign_0_af2pred (protein)
chain: SSSSDLDKRAWDLSVELYKLGREEELLRLAQLRTQYHLTGDPRLREELEALLDEIEAELKSSSSS

Target: il10ra, Q13651
Assay: yeast display titration

Binder	apparent Kd
B1	inactive: no binding seen
B2	inactive: no binding seen
B3	inactive: no binding seen
B4	inactive: no binding seen
B5	inactive: no binding seen
B6	inactive: no binding seen
B7	inactive: no binding seen
B8	inactive: no binding seen
B9	inactive: no binding seen
B10	inactive: no binding seen
B11	inactive: no binding seen
B12	inactive: no binding seen
B13	inactive: no binding seen
B14	inactive: no binding seen
B15	inactive: no binding seen
B16	inactive: no binding seen
B17	inactive: no binding seen
B18	inactive: no binding seen
B19	inactive: no binding seen
B20	inactive: no binding seen
B21	inactive: no binding seen
B22	inactive: no binding seen
B23	inactive: no binding seen
B24	inactive: no binding seen

6 consecutive entries from above, for reference:
Binder	apparent Kd
B17	inactive: no binding seen
B18	inactive: no binding seen
B19	inactive: no binding seen
B20	inactive: no binding seen
B21	inactive: no binding seen
B22	inactive: no binding seen
